Some entries share one result that the patent states for a list of compounds. At least one compound was matched to its structure with a doubt left.
Test system: MDA-MB-231 cells
Test: Cell viability assay, 24 hour treatment
Type: cell-based, human
Settings: MDA-MB-231, 24 hours
Procedure: Cell cytotoxicity assays. […] In brief, breast cancer cells were seeded in 96 well-plates at a density of 10^4 cells/well in growth media. On the following day, the contents of the 96 well plates were aspirated and replaced by treatment at different concentrations (ranging from 10^-9 to 10^-3 M), followed by the addition of media to bring the total volume to 200 µL/well. The untreated control group was incubated with 200 µL/well of fresh media. One day later, the media were aspirated and replaced by 90 µL media + 10 µL Prestoblue reagent, followed by incubation at 37° C. for 1 h. The fluorescence was excited at 560 nm and emission was recorded at 590 nm using a Spectra Max plus 384 Microplate Spectrophotometer (Molecular Devices, Sunnyvale, CA). Relative cell viability values were expressed as the percentage of the fluorescence recorded from wells containing treated cells compared to the control wells containing untreated cells.
Each breast cancer cell line was treated for 24 hours with various concentrations of E2-PROTAC or partial PROTAC and then cell viability was assessed using an MTS assay that measures mitochondrial oxido-reductase enzymes capable of converting a tetrazolium salt to a formazan dye (summarized in Table 2). […] These IC50 values were similar to those measured for cells treated with partial PROATAC.

`Cc1ncsc1-c1ccc(CNC(=O)C2CC(O)CN2C(=O)C(NC(=O)COCCOCCOCCOCC(=O)OC2CCC3C4CCc5cc(O)ccc5C4CCC23C)C(C)(C)C)cc1` (stereo not shown) [UI-EP001] was tested, and the cell survivability was greater than 80%.

Reference: patent US20230312639A1, “GPER PROTEOLYTIC TARGETING CHIMERAS” (University of Iowa Research Foundation, priority 2020, published 2023)
